Record: PubChem BioAssay AID602196 (INSERM, 2012)
Here is an unselected part of about 23,000 reagents tested. 455 of them (2%) were called active. 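Active includes both protection and sensitisation; some change values fall well beyond the stated -50 to +50 range.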 Reagents against one gene are numbered here. No sequences are given here. The record does not give: the amount of reagent.

Aim: 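Modifiers of cisplatin sensitivity in A549 cells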
Cells: human A549 lung cancer cells
Knock-down reagent: siRNA pair against human genes
Duration: 48 h transfection before cisplatin; time from cisplatin to read-out not stated
Treatment: cisplatin at a dose killing half of control-siRNA cells; exact dose and duration not given
Measured: 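Shift in cisplatin death relative to control siRNA, from -50 (all cells die) to +50 (no cells die); siRNAs harmful on their own scored 0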
Reading the numbers: two-siRNA summed score (-2 to +2): higher = both siRNAs protect from cisplatin killing; -2 means both sensitise; mean protection from cisplatin (shift in death) and protection from cisplatin (shift in death), siRNA C and protection from cisplatin (shift in death), siRNA D: higher = protection from cisplatin killing
Call rule: 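Each siRNA scores 0 if harmful alone by LDH or WST-1, otherwise +1 if it reduces and -1 if it increases cisplatin killing; a gene is active when both siRNAs agree (sum +2 or -2)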
Meaning of the calls: active = both siRNAs shift cisplatin killing the same way; inactive = no consistent shift, or siRNA harmful alone

no.	target	reagent no.	two-siRNA summed score (-2 to +2)	mean protection from cisplatin (shift in death) (%)	protection from cisplatin (shift in death), siRNA C (%)	protection from cisplatin (shift in death), siRNA D (%)	Outcome
1	LOC400612	1	0	9.2	8	10.4	inactive
2	LOC391553	1	0	50.4	4.5	96.2	inactive
3	IL12A (interleukin 12A)	1	-1	-10.9	-4.5	-17.4	inactive
4	NME2P1 (NME2 pseudogene 1)	1	0	-2.3	-4.1	-0.5	inactive
5	CLCN7 (Cl-/H+ antiporter 7)	1	-1	-10.8	-18	-3.7	inactive
6	SNRPA (small nuclear ribonucleoprotein polypeptide A)	1	0	-6	-10	-2	inactive
7	SULT1C3 (sulfotransferase family 1C member 3)	1	0	9.4	9.2	9.6	inactive
8	TM7SF3 (transmembrane 7 superfamily member 3)	1	0	5.7	4.5	7	inactive
9	FCAR (Fc alpha receptor)	1	0	21.1	-4.2	46.3	inactive
10	HCN4	1	-1	-9.4	3.5	-22.3	inactive
11	TXNL4B (thioredoxin like 4B)	1	0	6.4	10.7	2.1	inactive
12	NRM (nurim)	1	0	10.9	20.2	1.6	inactive
13	ALPL (alkaline phosphatase, biomineralization associated)	1	1	8.9	19.1	-1.4	inactive
14	LOC442273	1	1	21.5	14.4	28.6	inactive
15	SLC12A8	1	-1	-12.5	-8.1	-16.9	inactive
16	ARMC2 (armadillo repeat containing 2)	1	0	7.7	8.4	7	inactive
17	VCPIP1 (valosin containing protein interacting protein 1)	1	0	-3.1	10.4	-16.5	inactive
18	MRPS31 (mitochondrial ribosomal protein S31)	1	-1	-6	-11.7	-0.4	inactive
19	ZNF780B (zinc finger protein 780B)	1	0	13.1	13.3	12.9	inactive
20	SLC11A1	1	0	1.9	3.5	0.3	inactive
21	SERPINF2 (serpin family F member 2)	1	-1	-16.9	-22.4	-11.4	inactive
22	DPPA4 (developmental pluripotency associated 4)	1	0	4.1	-7.2	15.5	inactive
23	SMARCAL1 (SNF2 related chromatin remodeling annealing helicase 1)	1	-1	-7.8	12	-27.7	inactive
24	ARHGEF40 (Rho guanine nucleotide exchange factor 40)	1	-1	1.3	22.1	-19.5	inactive
25	MLN (motilin)	1	0	-9.5	-13.8	-5.3	inactive
26	B4GALNT4 (beta-1,4-N-acetyl-galactosaminyltransferase 4)	1	1	8.9	6.8	11	inactive
27	PLK1 (polo like kinase 1)	1	0	10.8	12.2	9.5	inactive
28	RTN4IP1 (reticulon 4 interacting protein 1)	1	1	13.1	22.7	3.5	inactive

Copied from the listing for reference:
no.	target	reagent no.	two-siRNA summed score (-2 to +2)	mean protection from cisplatin (shift in death) (%)	protection from cisplatin (shift in death), siRNA C (%)	protection from cisplatin (shift in death), siRNA D (%)	Outcome
20	SLC11A1	1	0	1.9	3.5	0.3	inactive
21	SERPINF2 (serpin family F member 2)	1	-1	-16.9	-22.4	-11.4	inactive
22	DPPA4 (developmental pluripotency associated 4)	1	0	4.1	-7.2	15.5	inactive
23	SMARCAL1 (SNF2 related chromatin remodeling annealing helicase 1)	1	-1	-7.8	12	-27.7	inactive
24	ARHGEF40 (Rho guanine nucleotide exchange factor 40)	1	-1	1.3	22.1	-19.5	inactive
25	MLN (motilin)	1	0	-9.5	-13.8	-5.3	inactive
26	B4GALNT4 (beta-1,4-N-acetyl-galactosaminyltransferase 4)	1	1	8.9	6.8	11	inactive
27	PLK1 (polo like kinase 1)	1	0	10.8	12.2	9.5	inactive

Next results follow.
no.	target	reagent no.	two-siRNA summed score (-2 to +2)	mean protection from cisplatin (shift in death) (%)	protection from cisplatin (shift in death), siRNA C (%)	protection from cisplatin (shift in death), siRNA D (%)	Outcome
29	LXN (latexin)	1	0	-9.9	-23.2	3.4	inactive
30	ADPGK (ADP dependent glucokinase)	1	0	7.5	3.1	11.9	inactive
31	SVOP (SV2 related protein)	1	0	5.3	12.3	-1.6	inactive
32	MIDN (midnolin)	1	-1	-2.2	12.6	-17.1	inactive
33	TMEM267 (transmembrane protein 267)	1	0	5.3	-3.6	14.1	inactive
34	KIDINS220 (kinase D interacting substrate 220)	1	-1	-4.6	4.8	-13.9	inactive
35	PCDHGB1 (protocadherin gamma subfamily B, 1)	1	0	10.3	6.1	14.6	inactive
36	GAA (alpha glucosidase)	1	-1	-1.7	13.1	-16.6	inactive
37	SLC25A24	1	0	9.3	4.3	14.4	inactive
38	JCHAIN (joining chain of multimeric IgA and IgM)	1	0	1.8	-2.2	5.8	inactive
39	ATP6AP1 (ATPase H+ transporting accessory protein 1)	1	0	2.9	5.9	-0.1	inactive
40	FLJ10359	1	1	11.1	17.4	4.8	inactive
41	LOC345462	1	1	17.9	14.1	21.6	inactive
42	LOC387841	1	0	30.5	31.1	29.9	inactive
43	CYP26A1 (cytochrome P450 family 26 subfamily A member 1)	1	-1	-20.9	-16.7	-25.1	inactive
44	FAM3D (FAM3 metabolism regulating signaling molecule D)	1	0	-0.7	-12.6	11.2	inactive
45	NELFCD (negative elongation factor complex member C/D)	1	0	7.1	5.8	8.3	inactive
46	GP5 (glycoprotein V platelet)	1	0	0.7	0.9	0.6	inactive
47	JAGN1 (jagunal vesicle mediated transporter 1)	1	0	12.8	12.3	13.3	inactive
48	LOC345222	1	0	-3.6	-3.9	-3.3	inactive
49	GIMAP5 (GTPase, IMAP family member 5)	1	0	-2.9	0.5	-6.3	inactive
50	CCNB1 (cyclin B1)	1	0	1.3	-2.6	5.3	inactive
51	ZNF74 (zinc finger protein 74)	1	0	-0.1	4.3	-4.6	inactive
52	LOC442118	1	1	7.9	0.4	15.5	inactive
53	AVO3	1	0	14.5	15.8	13.1	inactive
54	MIR7-3HG (MIR7-3 host gene)	1	1	6.8	-2.1	15.7	inactive
55	HS3ST1 (heparan sulfate-glucosamine 3-sulfotransferase 1)	1	0	-0.1	-9.1	8.9	inactive
56	C7 (complement C7)	1	1	13	16.7	9.3	inactive
57	OR7D4 (olfactory receptor family 7 subfamily D member 4)	1	1	-1.7	24.9	-28.4	inactive
58	OR7D4 (olfactory receptor family 7 subfamily D member 4)	2	1	16.5	2.5	30.4	inactive
